Results are given in words; binding and its absence hold for the method and conditions named. Binding seen in cells or lysates may run through a third protein. Here binding means that the protein was enriched with, or labelled near, the bait; the list need not be complete. A no says only that the protein was not detected with the bait.

Chains of the proteins cited; added tags and fusions are not shown.
UniProt Q91YE5: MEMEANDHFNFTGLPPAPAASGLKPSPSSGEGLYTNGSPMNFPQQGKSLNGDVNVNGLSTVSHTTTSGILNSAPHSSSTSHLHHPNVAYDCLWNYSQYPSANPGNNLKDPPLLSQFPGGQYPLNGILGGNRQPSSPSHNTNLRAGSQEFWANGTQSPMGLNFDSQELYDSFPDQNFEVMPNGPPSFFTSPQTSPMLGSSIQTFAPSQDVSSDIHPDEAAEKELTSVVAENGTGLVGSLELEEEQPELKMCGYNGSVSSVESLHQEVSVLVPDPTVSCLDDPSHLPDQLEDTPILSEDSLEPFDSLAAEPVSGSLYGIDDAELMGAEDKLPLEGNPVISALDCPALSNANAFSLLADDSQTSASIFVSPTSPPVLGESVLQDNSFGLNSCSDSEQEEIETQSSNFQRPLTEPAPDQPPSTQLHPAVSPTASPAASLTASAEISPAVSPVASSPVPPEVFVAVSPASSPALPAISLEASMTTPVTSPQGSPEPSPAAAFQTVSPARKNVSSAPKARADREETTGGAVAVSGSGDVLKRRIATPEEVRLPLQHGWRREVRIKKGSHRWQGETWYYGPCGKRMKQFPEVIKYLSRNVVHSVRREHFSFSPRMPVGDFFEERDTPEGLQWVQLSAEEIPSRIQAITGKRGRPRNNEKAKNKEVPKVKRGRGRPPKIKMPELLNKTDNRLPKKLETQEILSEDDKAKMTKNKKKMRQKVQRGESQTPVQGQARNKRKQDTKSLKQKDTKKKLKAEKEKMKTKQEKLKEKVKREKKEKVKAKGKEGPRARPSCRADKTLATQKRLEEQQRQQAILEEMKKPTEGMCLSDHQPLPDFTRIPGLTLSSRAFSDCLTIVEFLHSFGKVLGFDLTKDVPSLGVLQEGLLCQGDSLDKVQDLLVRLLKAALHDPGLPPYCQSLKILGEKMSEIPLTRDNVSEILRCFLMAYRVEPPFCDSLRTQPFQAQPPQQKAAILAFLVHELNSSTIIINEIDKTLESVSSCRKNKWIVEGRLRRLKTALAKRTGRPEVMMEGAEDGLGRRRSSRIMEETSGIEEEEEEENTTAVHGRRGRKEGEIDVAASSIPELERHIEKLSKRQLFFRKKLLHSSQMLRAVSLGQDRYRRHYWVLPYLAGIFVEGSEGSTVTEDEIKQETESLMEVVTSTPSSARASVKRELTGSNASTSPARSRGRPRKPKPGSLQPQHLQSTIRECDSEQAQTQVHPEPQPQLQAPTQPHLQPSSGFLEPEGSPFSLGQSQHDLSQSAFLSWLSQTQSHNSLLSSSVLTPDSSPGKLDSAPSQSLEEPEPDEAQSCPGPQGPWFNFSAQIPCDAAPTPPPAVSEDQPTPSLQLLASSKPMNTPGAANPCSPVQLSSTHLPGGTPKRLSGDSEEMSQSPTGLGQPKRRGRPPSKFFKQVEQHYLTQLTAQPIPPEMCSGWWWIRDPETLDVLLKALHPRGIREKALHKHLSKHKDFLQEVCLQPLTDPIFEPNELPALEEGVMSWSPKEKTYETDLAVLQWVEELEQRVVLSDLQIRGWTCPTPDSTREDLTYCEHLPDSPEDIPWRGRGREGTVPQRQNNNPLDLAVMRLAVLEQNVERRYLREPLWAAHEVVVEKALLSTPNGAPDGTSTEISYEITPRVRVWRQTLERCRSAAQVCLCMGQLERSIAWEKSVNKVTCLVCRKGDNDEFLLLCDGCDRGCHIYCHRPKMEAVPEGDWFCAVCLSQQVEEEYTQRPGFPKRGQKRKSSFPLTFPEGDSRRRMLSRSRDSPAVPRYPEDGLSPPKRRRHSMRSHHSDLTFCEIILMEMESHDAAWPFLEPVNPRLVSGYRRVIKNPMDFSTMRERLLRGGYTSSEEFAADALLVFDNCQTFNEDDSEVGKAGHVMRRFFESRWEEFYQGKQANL
UniProt Q01320: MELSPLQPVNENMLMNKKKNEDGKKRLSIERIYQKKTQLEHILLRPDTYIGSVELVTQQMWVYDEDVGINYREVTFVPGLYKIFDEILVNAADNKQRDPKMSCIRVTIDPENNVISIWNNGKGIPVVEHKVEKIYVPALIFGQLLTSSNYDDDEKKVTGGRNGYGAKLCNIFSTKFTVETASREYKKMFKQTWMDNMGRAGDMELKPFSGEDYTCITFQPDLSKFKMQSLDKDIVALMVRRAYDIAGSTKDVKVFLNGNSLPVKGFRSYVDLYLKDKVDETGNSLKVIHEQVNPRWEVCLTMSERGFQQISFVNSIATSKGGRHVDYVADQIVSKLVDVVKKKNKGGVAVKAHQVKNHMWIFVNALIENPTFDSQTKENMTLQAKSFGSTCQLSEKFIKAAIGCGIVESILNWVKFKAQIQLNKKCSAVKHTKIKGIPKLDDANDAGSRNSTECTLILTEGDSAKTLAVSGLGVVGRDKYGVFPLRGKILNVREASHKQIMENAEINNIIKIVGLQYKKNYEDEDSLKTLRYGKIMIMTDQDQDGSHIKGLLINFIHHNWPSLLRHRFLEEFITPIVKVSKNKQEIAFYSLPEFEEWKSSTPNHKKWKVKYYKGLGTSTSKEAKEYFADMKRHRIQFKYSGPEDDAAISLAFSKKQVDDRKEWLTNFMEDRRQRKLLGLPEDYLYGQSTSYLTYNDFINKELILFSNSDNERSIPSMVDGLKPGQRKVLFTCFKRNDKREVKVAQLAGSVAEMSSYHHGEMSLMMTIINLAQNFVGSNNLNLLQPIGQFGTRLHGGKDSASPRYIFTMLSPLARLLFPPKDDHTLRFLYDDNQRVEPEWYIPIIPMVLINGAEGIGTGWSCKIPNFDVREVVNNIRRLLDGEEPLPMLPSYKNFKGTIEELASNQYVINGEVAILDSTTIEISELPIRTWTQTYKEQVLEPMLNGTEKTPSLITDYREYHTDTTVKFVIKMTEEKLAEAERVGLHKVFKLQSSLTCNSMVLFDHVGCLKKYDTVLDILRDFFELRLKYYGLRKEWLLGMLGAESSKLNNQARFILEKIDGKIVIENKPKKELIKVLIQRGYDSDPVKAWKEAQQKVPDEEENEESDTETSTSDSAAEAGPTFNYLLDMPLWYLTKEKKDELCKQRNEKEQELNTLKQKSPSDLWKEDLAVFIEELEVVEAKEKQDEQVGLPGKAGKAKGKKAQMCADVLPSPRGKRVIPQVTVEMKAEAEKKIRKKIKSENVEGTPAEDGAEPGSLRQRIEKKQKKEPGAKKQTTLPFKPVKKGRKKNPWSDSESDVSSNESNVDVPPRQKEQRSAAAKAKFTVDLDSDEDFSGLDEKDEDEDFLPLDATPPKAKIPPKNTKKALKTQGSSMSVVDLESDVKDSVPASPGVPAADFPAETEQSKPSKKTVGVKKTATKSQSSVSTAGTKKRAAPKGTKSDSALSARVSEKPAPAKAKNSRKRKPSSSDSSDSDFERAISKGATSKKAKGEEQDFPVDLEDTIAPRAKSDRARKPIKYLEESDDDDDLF
UniProt P11103: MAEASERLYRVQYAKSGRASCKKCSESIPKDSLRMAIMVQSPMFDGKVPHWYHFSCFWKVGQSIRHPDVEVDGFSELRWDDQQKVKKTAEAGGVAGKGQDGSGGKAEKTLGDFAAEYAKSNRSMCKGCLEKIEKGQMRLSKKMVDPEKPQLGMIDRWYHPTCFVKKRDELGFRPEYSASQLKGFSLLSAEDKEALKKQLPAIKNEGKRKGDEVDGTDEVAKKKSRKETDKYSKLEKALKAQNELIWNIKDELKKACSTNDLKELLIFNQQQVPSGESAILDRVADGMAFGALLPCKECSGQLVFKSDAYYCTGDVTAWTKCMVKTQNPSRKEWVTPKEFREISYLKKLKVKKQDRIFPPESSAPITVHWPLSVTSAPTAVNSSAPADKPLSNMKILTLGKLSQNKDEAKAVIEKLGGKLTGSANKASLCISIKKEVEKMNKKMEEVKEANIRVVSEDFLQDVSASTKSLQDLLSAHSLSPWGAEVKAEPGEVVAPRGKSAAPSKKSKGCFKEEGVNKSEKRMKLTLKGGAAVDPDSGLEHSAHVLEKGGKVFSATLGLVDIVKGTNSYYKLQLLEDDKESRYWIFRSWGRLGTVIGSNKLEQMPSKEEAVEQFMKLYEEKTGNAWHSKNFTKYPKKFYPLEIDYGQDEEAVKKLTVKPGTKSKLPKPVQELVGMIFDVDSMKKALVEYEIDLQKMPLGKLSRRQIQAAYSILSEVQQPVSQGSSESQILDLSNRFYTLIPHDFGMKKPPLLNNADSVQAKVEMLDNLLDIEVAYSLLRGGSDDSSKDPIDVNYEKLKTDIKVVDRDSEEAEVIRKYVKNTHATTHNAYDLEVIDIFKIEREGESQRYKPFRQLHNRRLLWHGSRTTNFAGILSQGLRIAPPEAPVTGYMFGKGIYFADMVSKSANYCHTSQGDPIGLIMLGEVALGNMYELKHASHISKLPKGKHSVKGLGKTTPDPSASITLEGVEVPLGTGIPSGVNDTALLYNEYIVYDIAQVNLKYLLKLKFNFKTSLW
UniProt Q9CW03: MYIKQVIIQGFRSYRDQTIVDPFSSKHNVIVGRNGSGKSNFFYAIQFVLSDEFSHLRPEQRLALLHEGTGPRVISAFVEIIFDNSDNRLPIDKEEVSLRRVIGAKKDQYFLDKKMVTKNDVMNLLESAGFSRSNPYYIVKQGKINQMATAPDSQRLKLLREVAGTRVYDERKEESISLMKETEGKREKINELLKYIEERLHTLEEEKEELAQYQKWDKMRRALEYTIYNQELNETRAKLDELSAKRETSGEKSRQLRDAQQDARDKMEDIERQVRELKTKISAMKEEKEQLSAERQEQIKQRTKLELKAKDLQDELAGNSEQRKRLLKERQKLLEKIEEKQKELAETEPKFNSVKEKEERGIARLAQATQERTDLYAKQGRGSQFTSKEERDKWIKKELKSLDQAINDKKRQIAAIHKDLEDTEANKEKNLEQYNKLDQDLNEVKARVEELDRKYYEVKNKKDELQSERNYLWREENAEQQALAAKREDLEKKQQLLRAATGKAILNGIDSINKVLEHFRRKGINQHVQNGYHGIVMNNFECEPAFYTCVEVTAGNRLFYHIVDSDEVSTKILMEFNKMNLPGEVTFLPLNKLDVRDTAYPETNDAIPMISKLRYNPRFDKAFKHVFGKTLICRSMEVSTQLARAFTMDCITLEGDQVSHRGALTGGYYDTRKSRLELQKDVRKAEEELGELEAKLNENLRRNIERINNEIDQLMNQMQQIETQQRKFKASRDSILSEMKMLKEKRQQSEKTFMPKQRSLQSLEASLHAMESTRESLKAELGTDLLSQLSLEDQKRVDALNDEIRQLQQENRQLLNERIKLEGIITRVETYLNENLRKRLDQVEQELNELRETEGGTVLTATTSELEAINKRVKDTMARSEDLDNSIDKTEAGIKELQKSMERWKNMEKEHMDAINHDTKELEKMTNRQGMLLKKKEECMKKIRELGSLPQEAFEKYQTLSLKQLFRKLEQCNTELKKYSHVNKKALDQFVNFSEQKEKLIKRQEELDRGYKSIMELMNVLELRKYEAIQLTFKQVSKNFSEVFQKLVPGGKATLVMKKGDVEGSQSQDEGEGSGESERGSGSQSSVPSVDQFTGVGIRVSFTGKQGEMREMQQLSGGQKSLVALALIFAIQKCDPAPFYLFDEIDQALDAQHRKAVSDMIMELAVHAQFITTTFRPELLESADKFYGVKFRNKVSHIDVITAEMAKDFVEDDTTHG

The test has as its target FLAG-HA-tagged TIP5 (F/H-TIP5) (mouse (endogenous in 129/OlaHsd mouse ESCs)) (UniProt Q91YE5). Kind of test: affinity purification with mass spectrometry.

In the case of DHX9 (from UniProt O70133 1-1380), the binding entry is given as “binds”.
Consider “DNA topoisomerase 2A (TOP2A) (from UniProt Q01320 1-1528)”, for which the binding result is “binds”.
Consider DNMT1 (from UniProt P13864 1-1620), for which the binding result is on record as “binds”.
Consider PARP1 (from UniProt P11103 1-1013), for which the binding entry is “binds”.
With “SNF2H (SMARCA5) (from UniProt Q91ZW3 1-1051)”, the binding entry is “binds”.
With “structural maintenance of chromosomes protein 3 (SMC3) (from UniProt Q9CW03 1-1217)”, the binding result was “binds”.

B1: CTCF (protein, UniProt Q61164 1-736)
chain: MEGEAVEAIVEESETFIKGKERKTYQRRREGGQEEDACHLPQNQTDGGEVVQDVNSSVQMVMMEQLDPTLLQMKTEVMEGTVAPEAEAAVDDTQIITLQVVNMEEQPINIGELQLVQVPVPVTVPVATTSVEELQGAYENEVSKEGLAESEPMICHTLPLPEGFQVVKVGANGEVETLEQGELPPQEDSSWQKDPDYQPPAKKTKKTKKSKLRYTEEGKDVDVSVYDFEEEQQEGLLSEVNAEKVVGNMKPPKPTKIKKKGVKKTFQCELCSYTCPRRSNLDRHMKSHTDERPHKCHLCGRAFRTVTLLRNHLNTHTGTRPHKCPDCDMAFVTSGELVRHRRYKHTHEKPFKCSMCDYASVEVSKLKRHIRSHTGERPFQCSLCSYASRDTYKLKRHMRTHSGEKPYECYICHARFTQSGTMKMHILQKHTENVAKFHCPHCDTVIARKSDLGVHLRKQHSYIEQGKKCRYCDAVFHERYALIQHQKSHKNEKRFKCDQCDYACRQERHMIMHKRTHTGEKPYACSHCDKTFRQKQLLDMHFKRYHDPNFVPAAFVCSKCGKTFTRRNTMARHADNCAGPDGVEGENGGETKKSKRGRKRKMRSKKEDSSDSEENAEPDLDDNEEEEEPAVEIEPEPEPQPQPPPPPQPVAPAPPPAKKRRGRPPGRTNQPKQNQPTAIIQVEDQNTGAIENIIVEVKKEPDAEPAEGEEEEAQAATTDAPNGDLTPEMILSMMDR
Take B1: the binding entry is recorded as “no binding”.

B2: SMC1a (protein, UniProt Q9CU62 1-1233)
chain: MGFLKLIEIENFKSYKGRQIIGPFQRFTAIIGPNGSGKSNLMDAISFVLGEKTSNLRVKTLRDLIHGAPVGKPAANRAFVSMVYSEEGAEDRTFARVIVGGSSEYKINNKVVQLHEYSEELEKLGILIKARNFLVFQGAVESIAMKNPKERTALFEEISRSGELAQEYDKRKKEMVKAEEDTQFNYHRKKNIAAERKEAKQEKEEADRYQRLKDEVVRAQVQLQLFKLYHNEVEIEKLNKELASKNKEIEKDKKRMDKVEDELKEKKKELGKMMREQQQIEKEIKEKDSELNQKRPQYIKAKENTSHKIKKLEAAKKSLQNAQKHYKKRKGDMDELEKEMLSVEKARQEFEERMEEESQSQGRDLTLEENQVKKYHRLKEEASKRAATLAQELEKFNRDQKADQDRLDLEERKKVETEAKIKQKLREIEENQKRIEKLEEYITTSKQSLEEQKKLEGELTEEVEMAKRRIDEINKELNQVMEQLGDARIDRQESSRQQRKAEIMESIKRLYPGSVYGRLIDLCQPTQKKYQIAVTKVLGKNMDAIIVDSEKTGRDCIQYIKEQRGEPETFLPLDYLEVKPTDEKLRELKGAKLVIDVIRYEPPHIKKALQYACGNALVCDNVEDARRIAFGGHQRHKTVALDGTLFQKSGVISGGASDLKAKARRWDEKAVDKLKEKKERLTEELKEQMKAKRKEAELRQVQSQAHGLQMRLKYSQSDLEQTKTRHLALNLQEKSKLESELANFGPRINDIKRIIQSREREMKDLKEKMNQVEDEVFEEFCREIGVRNIREFEEEKVKRQNEIAKKRLEFENQKTRLGIQLDFEKNQLKEDQDKVHMWEQTVKKDENEIEKLKKEEQRHMKIIDETMAQLQDLKNQHLAKKSEVNDKNHEMEEIRKKLGGANKEMTHLQKEVTAIETKLEQKRSDRHNLLQACKMQDIKLPLSKGTMDDISQEEGSSQGEESVSGSQRTSSIYAREALIEIDYGDLCEDLKDAQAEEEIKQEMNTLQQKLNEQQSVLQRIAAPNMKAMEKLESVRDKFQETSDEFEAARKRAKKAKQAFEQIKKERFDRFNACFESVATNIDEIYKALSRNSSAQAFLGPENPEEPYLDGINYNCVAPGKRFRPMDNLSGGEKTVAALALLFAIHSYKPAPFFVLDEIDAALDNTNIGKVANYIKEQSTCNFQAIVISLKEEFYTKAESLIGVYPEQGDCVISKVLTFDLTKYPDANPNPNEQ
Take B2: the binding entry is listed as “binds”.

The values are drawn from publication doi:10.1101/2019.12.20.882282.
